# Some entries share one result that the patent states for a list of compounds.
# Test system: male C57BL/Ks db/db mice
# Experiment: Blood glucose in db/db mice (dietary curcumin or single i.p. injection)
# Assay type: in vivo, mouse
# Details: single i.p. injection, epoxomicin 0.1 mg/kg or celastrol 3 mg/kg
# Text: This translated into a daily consumption by the mice of roughly 1.0 to 1.5 g/kg/day.
# Male C57BU6J mice gradually develop obesity and moderate diabetes when placed on high-fat diets, a process quite analogous to that in humans. […] However, the loss of leptin effect on the C57BL/Ks background is not compensated for by β-cell hyperplasia and hyperinsulinemia. At a very young age these mice become severely hyperglycemic, hyperphagic, and polydipsic. As they mature, they start to lose weight, develop nephropathy, and ultimately die around age 40 weeks from diabetic complications.
# This effect was noted to last for at least 48 hours post-injection. Mice receiving vehicle in the celastrol and epoxomicin experiments were food entrained to the treatment group to avoid any acute effects on glucose levels from differences in food intake.
substance,measurement,value
celastrol,duration of correction of hyperglycemia post-injection,at least 48 hours
